No constants are given. Whether binding was seen depends on the method and setting. Some entries that bind do so weakly or less than the wild type.

The chains behind the UniProt entries cited, without tags or fusion partners. Residues count along the entry.
UniProt Q08722, residues 19-139: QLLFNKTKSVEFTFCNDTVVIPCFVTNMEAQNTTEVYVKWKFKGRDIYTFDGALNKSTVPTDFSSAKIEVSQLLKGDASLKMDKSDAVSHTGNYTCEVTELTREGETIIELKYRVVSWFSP

In this test the target is recombinant CD47 protein (UniProt Q08722). Kind of test: SPR; recombinant CD47 coupled to CM5 chip. (In general: Surface plasmon resonance follows binding to a sensor surface in real time, without labels.)

B1: SV4 (designed binder)
chain: MEEELQIIQPDLSVSVAAGESAILHCTITSLFPVGPIQWFRGAGPARVLIYNQRQGPFPRVTTVSETTKRENMDFSISISNITPADAGTYYCIKFRKGSPDTEFLSGAGTELSVRAKPS
For the molecule B1, the binding entry is “binds”.

B2: SV4-DSPE (protein)
chain: B1 chain
Consider B2, for which the binding result is listed as “binds”.

These data come from US20230322893A1, “CD47 BINDER AND LIPOSOME COMPLEX FOR CANCER TREATMENT” (priority 2020, published 2023).
